Laboratory results published in US11369659B2, “Method of enhancing a brain or cognitive function” (Brainon Inc., priority 2015, dated 2022).

Tested on: scopolamine-induced memory deterioration
Assay: step-through passive avoidance test
Type: in vivo, ICR mice
Conditions: scopolamine-injected group compared with normal saline-treated group (180 seconds, maximum cut-off time)
Method: Louis, Mo., USA). 4-week-old male ICR mice were purchased from Korean BioLink Co. (Chungbuk, Korea). After an adaptation period of one week, the mice were used in a test and all reagents were administered intraperitoneally. […] A passive avoidance test was performed in the same bright room and dark room. A floor of each room was formed in a shape in which 2-mm stainless steel rods were separated from each other at 1-cm intervals. Bright squares (20×20×20 cm) had 100-W bulbs. These squares were connected to a guillotine door. For an acquisition trial, the mouse was placed in the bright room after injection of the reagents and the door was opened after 10 seconds. When the mouse completely entered the dark room, the door was closed and electric shock was applied for 3 seconds. A retention trial was performed after 24 hours of the acquisition trial and the mouse was positioned in the bright room. A latency time of the acquisition and retention trials was measured by a time until the mouse entered the dark room of the box after the door was opened. The retention latency in the passive avoidance test represents a long-term memory function in rodents.

## CN1[C@@H]2C[C@@H](OC(=O)[C@H](CO)c3ccccc3)C[C@H]1[C@@H]1O[C@@H]12 [scopolamine, Scopolamine, reference compound]
  average of the step-through responses (retention latency): significantly lowered
